In US20210070730A1, “H2S-BASED THERAPEUTIC AGENTS FOR THE TREATMENT OF NEURODEGENERATIVE DISEASES” (INTERNATIONAL SOCIETY FOR DRUG DEVELOPMENT S.R.L., priority 2017, published 2021):
For at least one compound, name, drawing or mass did not settle the structure.

Test system: U87MG cells
Experiment: Western blot of autophagy markers in U87MG cells
Type: cell-based, human
Settings: 1 μM, 4 h
Method: FIG. 6. Western blot quantification of LC3II/LC3I ratio, p62, mTOR and Akt as hallmarks of the degree of ATG activation. […] (D) Western blot quantification of pAkt/Akt ratio in U87MG cells. Results represent mean±SEM of three different gels. *P<0.05, **P<0.01, ***P<0.001 versus vehicle treated cells (Control).
Western blot analysis. The human U-87MG cells were seeded in 6-well plates in a final volume of 2 ml/well at a density of 1×10^6/well and grown to 80% of confluence with standard medium (DMEM-High Glucose). Cells were treated with vehicle (0.1% DMSO) or test compounds (i.e. 10 μM Memantine or Memit and (1 μM) Rapamycin and incubated at 37° C. for 4 and 24 h. Treated cells were washed twice with PBS and lysed in Tris-buffered saline buffer-1% Triton-X100; NaCl 150 mM; Tris-HCl 20 mM; EDTA 1 mM; EGTA 1 mM; NaF 20 mM; Na4P2O7 25 mM; Na3VO4 1 mM; PMSF 1 mM; 8 μ/ml protein cocktail inhibitors (Sigma-Aldrich, Milan, Italy). Proteins (30-40 μg) were separated on Criterion TGX™ gel (4-20%) and transferred on Immuno-PVDF membrane (Bio-Rad, Milan, Italy) for 1 h. Blots were incubated for 12 h with diluted primary antibody [1:1000, LC3A/B; p62; mTOR, p-mTOR; Akt, p-Akt(Ser 473); β-actin, Cell Signaling] in 5% w/v BSA, 1× TBS and 0.1% Tween 20 at 4° C. under gentle shaking. Then, blots were washed three times for 10 min with 1× TBS, 0.1% Tween 20 and incubated for 1 h with secondary antibody (peroxidase-coupled anti rabbit in 1× TBS, 0.1% Tween 20). […] Band densitometric analysis was performed using Image Lab Software (Bio-Rad, Milan, Italy).
Evaluation of proautophagic activity: Expression of protein LC3-II, p62, and m-TOR, indicators of autophagy, were detected by western blotting, using Rapamycin as a positive control. In U87MG cell lines.

SMILES: CO[C@H]1C[C@@H]2CC[C@@H](C)[C@@](O)(O2)C(=O)C(=O)N2CCCC[C@H]2C(=O)O[C@H]([C@H](C)C[C@@H]2CC[C@@H](O)[C@H](OC)C2)CC(=O)[C@H](C)/C=C(\C)[C@@H](O)[C@@H](OC)C(=O)[C@H](C)C[C@H](C)/C=C/C=C/C=C/1C [Rapamycin]
- LC3II/LC3I ratio: increased LC3II/LC3I ratio
- p62 degradation: a significant p62 degradation
- p-mTOR/mTOR ratio: decreased p-mTOR/mTOR ratio
